Assay [1] deals with T1, Fas fusion proteins with the death domain (CFP and YFP) (Homo sapiens (Human)), P25445.
T1 chain: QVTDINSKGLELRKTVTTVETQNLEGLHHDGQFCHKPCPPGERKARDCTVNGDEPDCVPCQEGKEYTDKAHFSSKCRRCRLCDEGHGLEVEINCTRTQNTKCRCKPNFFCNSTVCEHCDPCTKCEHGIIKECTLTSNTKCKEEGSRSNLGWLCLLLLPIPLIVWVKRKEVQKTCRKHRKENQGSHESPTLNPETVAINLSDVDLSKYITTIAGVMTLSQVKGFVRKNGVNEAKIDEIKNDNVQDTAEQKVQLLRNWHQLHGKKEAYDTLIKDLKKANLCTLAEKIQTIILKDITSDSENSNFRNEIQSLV
In words: flow cytometric FRET, 293T cells. Conditions: remark: other sources report otherwise.

The target in assay [2] is T2, native Fas receptor of H9 lymphoma cells (Homo sapiens (Human)), P25445.
T2 chain: T1 chain
Briefly: immunoprecipitated Fas signaling complexes of H9 cells after APO-1 or FasL, blot; moderate FADD association after DTSSP alone. Conditions: remark: other sources report otherwise.

These are yes or no findings as the source states them, for the method shown. Some results given as binding are weak or reduced against the parent protein; the word gives no strength. For some assays here: Sequences can lack the tags named with a protein.

B1: Fas fusion proteins with the death domain (CFP and YFP), P25445 26-335 (receptor, not shown: large carriers)
chain: T1 chain
Turning to B1, the binding entry in assay [1] is “binds”.

B2: FADD, Q13158 1-208 (protein, UniProt Q13158 1-208, looked up)
chain: MDPFLVLLHSVSSSLSSSELTELKFLCLGRVGKRKLERVQSGLDLFSMLLEQNDLEPGHTELLRELLASLRRHDLLRRVDDFEAGAAAGAAPGEEDLCAAFNVICDNVGKDWRRLARQLKVSDTKIDSIEDRYPRNLTERVRESLRIWKNTEKENATVAHLVGALRSCQMNLVADLVQEVQQARDLQNRSGAMSPMSWNSDASTSEAS
Turning to B2, the binding result in assay [2] is recorded as “binds”.

(Values after patent US20100041596A1.)
